Data as given in PubChem BioAssay AID1053208 (Peter MacCallum Cancer Centre, 2014)
The whole screen tested about 17,000 reagents; below is a part drawn at random. In the full data, 788 (4.7%) were called active. 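Calls rest on z-score classes alone; an extra cut-off of viability at most 70% of control was not applied to them.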 Further read-outs or replicates are left out here.

- Aim: 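Synthetic lethal interactions between gene loss and doxorubicin in osteosarcoma cells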 (primary screen)
- Cells: mouse osteosarcoma cells, early-passage culture from an engineered mouse model of fibroblastic bone tumour
- Reagents: siRNA pool against mouse genes, 40 nM
- Timing: about 120 h (48 h before drug, then 72 h with drug)
- Treatment: doxorubicin 100 nM for 72 h, roughly 30-40% inhibitory dose
- Measurement: 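Luminescent ATP signal taken as viability with or without 100 nM doxorubicin for 72 h; mean of two wells set against non-targeting siRNA and turned into robust z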
- Direction: viability z-score with doxorubicin: higher = more viable cells under doxorubicin; viability z-score without drug: higher = more viable cells with knock-down alone
- Rule for the call: 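Called active if knock-down leaves viability unchanged without drug (z within -2 to 2) but lowers it with doxorubicin (z at or under -2)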

gene | combined z-score class | viability z-score with doxorubicin | viability z-score without drug | call
Prss59 | no change with or without drug | -0.9 | 1.85 | inactive
Ddi2 | no change with or without drug | -0.34 | 1.52 | inactive
Txndc15 | low cell count with doxorubicin only | -3.26 | -0.17 | active
Jag1 | no change with or without drug | -1.8 | -0.17 | inactive
Spdef | no change with or without drug | 0.56 | -0.17 | inactive
Mrps16 | low cell count with doxorubicin only | -3.37 | -1.52 | active
Slc60a1 | no change with or without drug | -0.67 | -0.17 | inactive
Tmem143 | no change with or without drug | 0.22 | 0.17 | inactive
Cstpp1 | no change with or without drug | 1.35 | 0.84 | inactive
Defb10 | high cell count without drug only | 0.67 | 2.7 | inactive
Ift52 | no change with or without drug | 0 | -0.67 | inactive
Abcd1 | no change with or without drug | -0.22 | -0.17 | inactive
Sult1e1 | no change with or without drug | 1.01 | 1.01 | inactive
Bmpr1b | no change with or without drug | 1.12 | -0.84 | inactive
E230012M21 | no change with or without drug | -0.22 | 0.34 | inactive
Pax2 | no change with or without drug | 0.67 | -0.51 | inactive
Gimap6 | no change with or without drug | -1.57 | -0.17 | inactive
Nap1l3 | no change with or without drug | -0.22 | -1.35 | inactive
Cish | no change with or without drug | -0.45 | -0.17 | inactive
Pacsin1 | low cell count with and without drug | -2.02 | -2.53 | inactive
Shh | no change with or without drug | 0.79 | -0.51 | inactive
Gsta4 | no change with or without drug | 0.56 | 1.52 | inactive
Rnf24 | no change with or without drug | -0.45 | -1.18 | inactive
Nme2 | no change with or without drug | 0 | 0.67 | inactive
Them7 | no change with or without drug | 0.67 | -1.52 | inactive

The list goes on, starting with the last 2 of the part before.
gene | combined z-score class | viability z-score with doxorubicin | viability z-score without drug | call
Nme2 | no change with or without drug | 0 | 0.67 | inactive
Them7 | no change with or without drug | 0.67 | -1.52 | inactive
C130073F10Rik | no change with or without drug | -0.45 | -1.01 | inactive
B930095G15Rik | no change with or without drug | -1.35 | -0.84 | inactive
Or7g34 | no change with or without drug | 0 | 0.17 | inactive
Fam174a | no change with or without drug | -0.67 | -0.17 | inactive
Dlst | no change with or without drug | 0 | 0.34 | inactive
Slc6a8 | no change with or without drug | 1.46 | 0 | inactive
Slc44a1 | no change with or without drug | 0.34 | 1.18 | inactive
Gdf3 | no change with or without drug | -0.34 | -0.17 | inactive
Zfp867 | no change with or without drug | -1.01 | -0.67 | inactive
Cysltr1 | no change with or without drug | 0 | -0.51 | inactive
Serpinf1 | high cell count with and without drug | 2.36 | 2.87 | inactive
Ppp2r2d | high cell count with doxorubicin only | 3.26 | -0.51 | inactive
Sntg1 | no change with or without drug | 1.12 | 0.51 | inactive
Tacr3 | no change with or without drug | -0.34 | 0.84 | inactive
A030005K14Rik | no change with or without drug | 0.9 | 1.69 | inactive
Actr2 | low cell count without drug only | -1.35 | -2.53 | inactive
Gtf2a2 | no change with or without drug | -0.79 | -0.17 | inactive
Slc25a41 | no change with or without drug | 0.67 | 1.52 | inactive
Itsn1 | no change with or without drug | 0.22 | 0.51 | inactive
Klra10 | high cell count without drug only | 0.9 | 2.87 | inactive
Nt5c | no change with or without drug | 0.67 | -0.84 | inactive
Eri2 | no change with or without drug | 1.12 | 1.85 | inactive
Hoxa2 | high cell count with doxorubicin only | 3.37 | -0.67 | inactive
Atf5 | low cell count with doxorubicin only | -2.02 | -1.18 | active
Rundc1 | no change with or without drug | -1.8 | 0.17 | inactive
